Measured values from PubChem BioAssay AID2685 (National Center for Advancing Translational Sciences (NCATS), 2010).
Out of some 320,000 compounds screened, about 2,100 (0.66%) were called active. The call rests on the fitted dose curve; in most records, active means well fitted inhibition curve with a large enough effect in the signal ratio, with a control signal flat (not every such curve was filed as active); inconclusive means small, poorly fitted or top-dose-only effect, or effect the other way, or a change in a side signal; inactive means flat fitted curve, though single readings scatter; the % refers to the signal ratio. Inconclusive results, whose numbers are uncertain, are shown. Where the call is inconclusive, the potency comes from a doubtful curve fit.

Assay: qHTS Assay for Lipid Storage Modulators in Drosophila S3 Cells
Settings: BODIPY lipid droplet fluorescence, 18-24 h, cells fed with added oleic acid; lipid storage change, negative = inhibition: at 46.1 µM (top of the series) unless noted
Method in brief: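 Laser-scanning cytometry quantifies lipid droplet accumulation (500–530 nm total intensity; droplet/cell object ratio) in oleic acid-fed (400 uM added) Drosophila S3 cells treated with a concentration series. 20 uM Triacsin C defined 100% inhibition.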
On the % scale 0 is the no-effect control and ±100 the full control effect; potency means the concentration at half of the fitted maximal effect.

Lipid storage change, negative = inhibition, inconclusive:
N/C(Cc1cccc2ccccc12)=N\OC(=O)c1cccs1 -4.98%
C#CCNC(=O)c1cccn1-c1ncc(C(F)(F)F)cc1Cl 5.38%
CCC(=O)Oc1ccc(NC(=O)CSCc2ccccc2)cc1 -17.8% [at 9.22 µM]
Cc1ccc2oc(Nc3nc(-c4ccccc4)cc(=O)[nH]3)nc2c1 -21.6%
Cc1nn(-c2ccccc2)c(C)c1-c1cc(C(=O)N/N=C/c2cccnc2)[nH]n1 -85.9%
O=C(NCC1COc2ccccc2O1)c1cc(S(=O)(=O)N2CCOCC2)ccc1F (stereo unspecified)
CCCCOC(=O)n1c(=O)oc2ccccc21 -21.2%
COc1cccc(/C=C/c2ccc3ccccc3n2)c1OC(C)=O 22.3%
Cc1cc(C)c(OCCOCCN(C)C)c(Br)c1 0.271%
O=C(CN1CCOCC1)Nc1ncc(Cc2cccc(Cl)c2)s1 131%
Cc1cc(C[n+]2cc(Br)ccc2N)c2ncccc2c1 45.7%
CCOC(=O)Cn1c(=O)oc2cc(S(=O)(=O)Nc3ccc(N(CC)CC)cc3C)ccc21 6.04%
COC(=O)C1CCN(C(=O)CN(C)Cc2ccc(C(C)(C)C)cc2)CC1 64.1%
CCc1ccc(C(=O)N2CCN(c3ccc(F)cc3)CC2)s1 61.9%

Quoted from the listing, four compounds:
Lipid storage change, negative = inhibition, inconclusive:
C#CCNC(=O)c1cccn1-c1ncc(C(F)(F)F)cc1Cl 5.38%
CCC(=O)Oc1ccc(NC(=O)CSCc2ccccc2)cc1 -17.8% [at 9.22 µM]
Cc1ccc2oc(Nc3nc(-c4ccccc4)cc(=O)[nH]3)nc2c1 -21.6%
Cc1nn(-c2ccccc2)c(C)c1-c1cc(C(=O)N/N=C/c2cccnc2)[nH]n1 -85.9%

Following part:

Potency, inconclusive:
Nc1nc(N)c(N=Nc2ccc(C(=O)O)cc2)c(N)n1 2.59 µM [activator, partial curve, poor fit]
O=C(COC(=O)c1cccc(S(=O)(=O)N2CCOCC2)c1)c1ccccc1 29.1 µM [falling, single point]
CCOC(=O)[C@H]1[C@H]2COc3ccc(Br)cc3[C@@H]2N2C(=O)c3ccc(F)cc3NC(=O)[C@@]12C 6.51 µM [falling, single point]
Cc1ccc(CNC(=O)CCn2cc(-c3ccc(F)cc3)nc2-c2ccncc2)cc1 18.4 µM [falling, partial curve, poor fit]
O=C(N1CCC(n2nc(-c3ccccc3)oc2=O)CC1)C1(c2ccc(Cl)cc2)CC1 4.61 µM [falling, full curve]
O=C(NCc1cn2ccsc2n1)c1cccs1 0.92 µM [activator, full curve]
CCCc1nn2c(=O)cc(CSCC(=O)Nc3nnc(CC)s3)nc2s1 29.1 µM [activator, single point]
